# The list shows a part of the results. Only hits are listed; about a third recur on repeated control peptides.
# Chains of the proteins cited; added tags and fusions are not shown.
# COX4I1, P13073, UniProt P13073, whole entry: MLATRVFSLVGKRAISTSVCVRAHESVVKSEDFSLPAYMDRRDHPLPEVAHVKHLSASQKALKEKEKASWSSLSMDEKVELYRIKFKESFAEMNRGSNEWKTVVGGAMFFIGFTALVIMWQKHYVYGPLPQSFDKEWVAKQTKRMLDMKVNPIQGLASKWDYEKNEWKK
# EIF3K, Q9UBQ5, UniProt Q9UBQ5, whole entry: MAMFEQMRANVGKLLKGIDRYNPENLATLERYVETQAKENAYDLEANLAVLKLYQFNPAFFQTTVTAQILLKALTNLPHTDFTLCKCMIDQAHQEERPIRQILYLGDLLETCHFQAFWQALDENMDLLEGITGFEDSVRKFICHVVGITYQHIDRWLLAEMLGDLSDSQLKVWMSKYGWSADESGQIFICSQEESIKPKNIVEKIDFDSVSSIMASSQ
# MYO1C, O00159, UniProt O00159, whole entry: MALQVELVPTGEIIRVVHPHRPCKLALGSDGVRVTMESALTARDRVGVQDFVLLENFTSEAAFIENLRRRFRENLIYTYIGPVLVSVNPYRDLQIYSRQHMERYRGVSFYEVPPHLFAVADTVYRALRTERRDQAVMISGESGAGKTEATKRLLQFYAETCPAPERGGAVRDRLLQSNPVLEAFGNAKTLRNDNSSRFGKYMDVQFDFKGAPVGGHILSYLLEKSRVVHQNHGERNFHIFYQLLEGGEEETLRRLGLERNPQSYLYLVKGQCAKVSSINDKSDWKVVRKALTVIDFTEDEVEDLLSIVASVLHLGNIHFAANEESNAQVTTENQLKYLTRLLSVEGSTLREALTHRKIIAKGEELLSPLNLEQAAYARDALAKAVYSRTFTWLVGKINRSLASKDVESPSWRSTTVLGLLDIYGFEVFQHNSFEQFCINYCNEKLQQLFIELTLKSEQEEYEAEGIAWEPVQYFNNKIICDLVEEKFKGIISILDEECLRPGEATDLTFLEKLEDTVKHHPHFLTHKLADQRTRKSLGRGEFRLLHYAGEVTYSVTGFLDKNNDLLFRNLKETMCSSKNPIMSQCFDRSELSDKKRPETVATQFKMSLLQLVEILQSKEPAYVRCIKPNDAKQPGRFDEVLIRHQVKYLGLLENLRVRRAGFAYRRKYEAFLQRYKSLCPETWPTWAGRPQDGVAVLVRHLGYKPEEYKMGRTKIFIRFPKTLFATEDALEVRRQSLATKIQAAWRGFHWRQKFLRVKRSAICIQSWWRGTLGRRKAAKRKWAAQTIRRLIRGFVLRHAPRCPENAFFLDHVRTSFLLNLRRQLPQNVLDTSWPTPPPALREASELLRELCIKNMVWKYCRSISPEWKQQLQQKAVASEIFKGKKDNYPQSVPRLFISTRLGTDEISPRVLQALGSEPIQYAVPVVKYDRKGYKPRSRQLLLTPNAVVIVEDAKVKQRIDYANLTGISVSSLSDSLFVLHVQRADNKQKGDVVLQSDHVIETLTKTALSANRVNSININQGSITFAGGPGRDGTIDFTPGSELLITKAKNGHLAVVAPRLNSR
# NDUFS7, O75251, UniProt O75251, whole entry: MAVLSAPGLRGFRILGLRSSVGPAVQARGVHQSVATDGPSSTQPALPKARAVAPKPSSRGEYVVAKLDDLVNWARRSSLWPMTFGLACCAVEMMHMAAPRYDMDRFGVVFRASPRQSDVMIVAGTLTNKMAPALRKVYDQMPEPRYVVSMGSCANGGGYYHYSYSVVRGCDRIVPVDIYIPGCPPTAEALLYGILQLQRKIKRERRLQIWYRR
# TUBGCP2, Q9BSJ2, UniProt Q9BSJ2, whole entry: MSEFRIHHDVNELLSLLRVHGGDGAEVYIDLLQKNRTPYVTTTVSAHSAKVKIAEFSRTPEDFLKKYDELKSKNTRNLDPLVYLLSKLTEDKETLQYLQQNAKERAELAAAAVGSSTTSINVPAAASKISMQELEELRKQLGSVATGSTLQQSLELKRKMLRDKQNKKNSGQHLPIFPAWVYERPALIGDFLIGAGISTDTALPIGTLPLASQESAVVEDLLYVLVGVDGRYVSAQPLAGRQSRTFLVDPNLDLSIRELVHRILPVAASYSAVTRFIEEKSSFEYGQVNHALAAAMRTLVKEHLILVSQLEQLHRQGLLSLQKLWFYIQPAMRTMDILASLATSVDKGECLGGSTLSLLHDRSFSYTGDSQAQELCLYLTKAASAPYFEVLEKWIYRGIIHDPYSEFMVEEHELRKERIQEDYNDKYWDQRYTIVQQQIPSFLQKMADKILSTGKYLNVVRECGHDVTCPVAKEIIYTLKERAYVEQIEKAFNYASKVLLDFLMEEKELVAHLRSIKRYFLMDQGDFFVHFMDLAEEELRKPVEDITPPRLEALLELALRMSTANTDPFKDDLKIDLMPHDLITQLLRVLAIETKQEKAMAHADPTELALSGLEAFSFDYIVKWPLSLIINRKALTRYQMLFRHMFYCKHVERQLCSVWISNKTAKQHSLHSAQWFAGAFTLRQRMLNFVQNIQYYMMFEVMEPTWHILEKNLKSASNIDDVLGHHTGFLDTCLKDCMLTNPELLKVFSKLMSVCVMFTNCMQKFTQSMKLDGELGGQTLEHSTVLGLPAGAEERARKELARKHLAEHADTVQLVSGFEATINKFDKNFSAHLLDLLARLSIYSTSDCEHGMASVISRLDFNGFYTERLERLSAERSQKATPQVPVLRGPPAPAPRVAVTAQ
# HIST1H1E, P10412, UniProt P10412, whole entry: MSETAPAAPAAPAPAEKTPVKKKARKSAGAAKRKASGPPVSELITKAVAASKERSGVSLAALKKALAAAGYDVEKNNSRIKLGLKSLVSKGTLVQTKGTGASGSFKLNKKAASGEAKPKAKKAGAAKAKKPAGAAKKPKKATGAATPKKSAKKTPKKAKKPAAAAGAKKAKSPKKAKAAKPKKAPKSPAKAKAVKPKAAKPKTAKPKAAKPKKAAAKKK
# NCL, P19338, UniProt P19338, whole entry: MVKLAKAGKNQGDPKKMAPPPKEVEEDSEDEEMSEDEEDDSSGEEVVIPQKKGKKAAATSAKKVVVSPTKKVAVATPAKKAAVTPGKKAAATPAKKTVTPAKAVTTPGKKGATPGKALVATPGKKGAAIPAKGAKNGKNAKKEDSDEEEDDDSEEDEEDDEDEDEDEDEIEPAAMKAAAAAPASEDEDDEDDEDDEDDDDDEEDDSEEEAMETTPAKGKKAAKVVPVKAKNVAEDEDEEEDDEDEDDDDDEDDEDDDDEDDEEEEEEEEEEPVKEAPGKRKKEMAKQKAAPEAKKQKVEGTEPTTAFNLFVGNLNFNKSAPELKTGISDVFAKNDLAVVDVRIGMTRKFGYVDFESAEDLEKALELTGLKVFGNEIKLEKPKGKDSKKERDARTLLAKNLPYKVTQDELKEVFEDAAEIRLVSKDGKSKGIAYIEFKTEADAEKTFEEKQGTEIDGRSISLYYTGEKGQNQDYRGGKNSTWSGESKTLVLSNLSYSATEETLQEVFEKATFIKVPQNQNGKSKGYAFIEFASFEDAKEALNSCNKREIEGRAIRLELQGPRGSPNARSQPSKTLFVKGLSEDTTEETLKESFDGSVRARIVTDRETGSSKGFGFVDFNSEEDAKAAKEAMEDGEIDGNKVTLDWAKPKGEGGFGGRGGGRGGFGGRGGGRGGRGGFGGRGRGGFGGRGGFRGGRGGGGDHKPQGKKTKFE
# PSMD1, Q99460, UniProt Q99460, whole entry: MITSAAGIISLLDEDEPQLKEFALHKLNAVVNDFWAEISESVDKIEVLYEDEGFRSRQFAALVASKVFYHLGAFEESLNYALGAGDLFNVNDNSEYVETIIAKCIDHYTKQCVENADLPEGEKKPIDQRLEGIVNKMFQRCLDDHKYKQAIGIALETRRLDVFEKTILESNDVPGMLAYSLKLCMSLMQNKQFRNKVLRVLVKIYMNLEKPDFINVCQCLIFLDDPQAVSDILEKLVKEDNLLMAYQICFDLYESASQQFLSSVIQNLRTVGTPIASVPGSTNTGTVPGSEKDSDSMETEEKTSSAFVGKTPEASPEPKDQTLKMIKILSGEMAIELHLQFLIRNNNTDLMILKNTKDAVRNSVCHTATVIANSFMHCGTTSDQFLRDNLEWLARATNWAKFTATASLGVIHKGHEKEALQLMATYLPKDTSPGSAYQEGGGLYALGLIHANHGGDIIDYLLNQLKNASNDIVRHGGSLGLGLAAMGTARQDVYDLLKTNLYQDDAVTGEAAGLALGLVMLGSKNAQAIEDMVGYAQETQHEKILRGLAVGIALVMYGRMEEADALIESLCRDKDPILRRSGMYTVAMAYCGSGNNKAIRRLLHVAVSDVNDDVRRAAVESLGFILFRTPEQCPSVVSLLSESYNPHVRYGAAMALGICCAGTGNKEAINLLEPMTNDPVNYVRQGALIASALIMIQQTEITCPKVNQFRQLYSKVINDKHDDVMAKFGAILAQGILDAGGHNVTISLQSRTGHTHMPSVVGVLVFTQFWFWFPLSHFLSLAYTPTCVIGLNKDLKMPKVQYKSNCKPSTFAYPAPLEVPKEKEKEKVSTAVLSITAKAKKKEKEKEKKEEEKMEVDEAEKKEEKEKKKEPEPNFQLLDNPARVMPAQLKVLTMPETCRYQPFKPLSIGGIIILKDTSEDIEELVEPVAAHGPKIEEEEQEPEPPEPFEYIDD
# RFC5, P40937, UniProt P40937, whole entry: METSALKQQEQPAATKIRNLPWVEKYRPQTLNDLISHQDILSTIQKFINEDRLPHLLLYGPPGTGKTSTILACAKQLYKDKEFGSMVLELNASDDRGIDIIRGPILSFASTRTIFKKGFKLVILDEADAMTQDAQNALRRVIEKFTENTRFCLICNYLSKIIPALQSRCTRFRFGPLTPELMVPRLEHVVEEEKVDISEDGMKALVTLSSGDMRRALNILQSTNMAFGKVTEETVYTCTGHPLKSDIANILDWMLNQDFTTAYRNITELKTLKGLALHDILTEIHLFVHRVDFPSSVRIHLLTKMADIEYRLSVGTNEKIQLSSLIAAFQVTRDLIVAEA
# SET, Q01105, UniProt Q01105, whole entry: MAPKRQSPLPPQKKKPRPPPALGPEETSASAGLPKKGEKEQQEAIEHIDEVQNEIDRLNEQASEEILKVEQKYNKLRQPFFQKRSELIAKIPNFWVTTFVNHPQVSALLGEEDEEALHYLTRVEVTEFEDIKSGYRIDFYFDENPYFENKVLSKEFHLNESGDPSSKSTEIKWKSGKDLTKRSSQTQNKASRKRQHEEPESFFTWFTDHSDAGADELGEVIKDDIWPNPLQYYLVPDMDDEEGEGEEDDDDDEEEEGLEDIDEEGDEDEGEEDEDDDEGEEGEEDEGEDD
# WDR82, Q6UXN9, UniProt Q6UXN9, whole entry: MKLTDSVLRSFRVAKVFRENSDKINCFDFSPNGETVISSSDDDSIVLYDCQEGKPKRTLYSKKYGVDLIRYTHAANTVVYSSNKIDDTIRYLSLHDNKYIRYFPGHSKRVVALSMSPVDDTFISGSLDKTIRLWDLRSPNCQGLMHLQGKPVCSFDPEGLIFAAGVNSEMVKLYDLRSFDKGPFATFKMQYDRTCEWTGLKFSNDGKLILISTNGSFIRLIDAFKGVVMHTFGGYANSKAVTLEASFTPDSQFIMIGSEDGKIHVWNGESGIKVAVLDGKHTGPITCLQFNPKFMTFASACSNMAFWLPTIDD
# What was measured:
# Test in all cases: PRISMA enrichment of interactor (LFQ) in peptide spot vs all other peptide spots (log2 fold change); higher = stronger / more specific binding of the interactor to the peptide
# ADAR, P55265 = target: ADAR, P55265
# Method: (§1)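 PRISMA: 15-aa overlapping tiles (offset 8 aa) of 60 microproteins, plus SOS1/GLUT1 control peptides, were spot-synthesized on cellulose membranes in triplicate. Membranes were incubated with benzonase-treated HEK293T lysate, and bound proteins were identified by LC-MS/MS with LFQ. Enrichment is the log2 fold change of each protein in one spot versus all other spots. Only interactors passing the significance cutoff are listed.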
# AP2A1, O95782 = target: AP2A1, O95782
# Method: as §1
# ATP5PB, P24539 = target: ATP5PB, P24539
# Method: as §1
# BOLA2, Q9H3K6 = target: BOLA2, Q9H3K6
# Method: as §1
# BUD23, O43709 = target: BUD23, O43709
# Method: as §1
# CLTCL1, P53675 = target: CLTCL1, P53675
# Method: as §1
# COX4I1, P13073 = target: COX4I1, P13073
# Method: as §1
# CTR9, Q6PD62 = target: CTR9, Q6PD62
# Method: as §1
# DTYMK, P23919 = target: DTYMK, P23919
# Method: as §1
# EIF2B2, P49770 = target: EIF2B2, P49770
# Method: as §1
# EIF3K, Q9UBQ5 = target: EIF3K, Q9UBQ5
# Method: as §1
# FAM136A, Q96C01 = target: FAM136A, Q96C01
# Method: as §1
# GTF3C4, Q9UKN8 = target: GTF3C4, Q9UKN8
# Method: as §1
# HMGN2, P05204 = target: HMGN2, P05204
# Method: as §1
# HMMR, O75330 = target: HMMR, O75330
# Method: as §1
# HOMER2, Q9NSB8 = target: HOMER2, Q9NSB8
# Method: as §1
# LAMTOR5, O43504 = target: LAMTOR5, O43504
# Method: as §1
# MAP1B, P46821 = target: MAP1B, P46821
# Method: as §1
# MYO1C, O00159 = target: MYO1C, O00159
# Method: as §1
# NCOA5, Q9HCD5 = target: NCOA5, Q9HCD5
# Method: as §1
# NDUFS7, O75251 = target: NDUFS7, O75251
# Method: as §1
# NUP160, Q12769 = target: NUP160, Q12769
# Method: as §1
# NUP88, Q99567 = target: NUP88, Q99567
# Method: as §1
# OXSR1, O95747 = target: OXSR1, O95747
# Method: as §1
# PDLIM1, O00151 = target: PDLIM1, O00151
# Method: as §1
# PPIL4, Q8WUA2 = target: PPIL4, Q8WUA2
# Method: as §1
# PRRC2B, Q5JSZ5 = target: PRRC2B, Q5JSZ5
# Method: as §1
# RBMXL1, Q96E39 = target: RBMXL1, Q96E39
# Method: as §1
# SEC31A, O94979 = target: SEC31A, O94979
# Method: as §1
# TUBGCP2, Q9BSJ2 = target: TUBGCP2, Q9BSJ2
# Method: as §1
# TWNK, Q96RR1 = target: TWNK, Q96RR1
# Method: as §1
# ZC3HC1, Q86WB0 = target: ZC3HC1, Q86WB0
# Method: as §1
# hCG_2014768 = target: hCG_2014768
# Method: as §1
# ANP32A, P39687 = target: ANP32A, P39687
# Method: as §1
# ANP32B, Q92688 = target: ANP32B, Q92688
# Method: as §1
# HDGFL2, Q7Z4V5 = target: HDGFL2, Q7Z4V5
# Method: as §1
# HIST1H1E, P10412 = target: HIST1H1E, P10412
# Method: as §1
# MACF1 = target: MACF1
# Method: as §1
# MRPS5, P82675 = target: MRPS5, P82675
# Method: as §1
# NCL, P19338 = target: NCL, P19338
# Method: as §1
# NOLC1, Q14978 = target: NOLC1, Q14978
# Method: as §1
# NTMT1, Q9BV86 = target: NTMT1, Q9BV86
# Method: as §1
# NUCKS1, Q9H1E3 = target: NUCKS1, Q9H1E3
# Method: as §1
# OGFR, Q9NZT2 = target: OGFR, Q9NZT2
# Method: as §1
# PCYT1A, P49585 = target: PCYT1A, P49585
# Method: as §1
# PDS5B, Q9NTI5 = target: PDS5B, Q9NTI5
# Method: as §1
# PSMD1, Q99460 = target: PSMD1, Q99460
# Method: as §1
# PSPC1, Q8WXF1 = target: PSPC1, Q8WXF1
# Method: as §1
# PTMA, P06454 = target: PTMA, P06454
# Method: as §1
# RFC5, P40937 = target: RFC5, P40937
# Method: as §1
# RTF1, Q92541 = target: RTF1, Q92541
# Method: as §1
# SET, Q01105 = target: SET, Q01105
# Method: as §1
# SRSF2, Q01130 = target: SRSF2, Q01130
# Method: as §1
# TXNDC5, Q8NBS9 = target: TXNDC5, Q8NBS9
# Method: as §1
# UTP14A, Q9BVJ6 = target: UTP14A, Q9BVJ6
# Method: as §1
# WDR82, Q6UXN9 = target: WDR82, Q6UXN9
# Method: as §1
# ZC3H18, Q86VM9 = target: ZC3H18, Q86VM9
# Method: as §1
binder,measurement,setting,value
ISTGLGKQMQSAFQN [RP11-432J24.5_2],PRISMA enrichment of interactor (log2),"ADAR, P55265",5.08
same,PRISMA enrichment of interactor (log2),"AP2A1, O95782",5.27
same,PRISMA enrichment of interactor (log2),"ATP5PB, P24539",4.71
same,PRISMA enrichment of interactor (log2),"BOLA2, Q9H3K6",4.52
same,PRISMA enrichment of interactor (log2),"BUD23, O43709",4.76
same,PRISMA enrichment of interactor (log2),"CLTCL1, P53675",4.33
same,PRISMA enrichment of interactor (log2),"COX4I1, P13073",7.44
same,PRISMA enrichment of interactor (log2),"CTR9, Q6PD62",7.86
same,PRISMA enrichment of interactor (log2),"DTYMK, P23919",4.77
same,PRISMA enrichment of interactor (log2),"EIF2B2, P49770",4.46
same,PRISMA enrichment of interactor (log2),"EIF3K, Q9UBQ5",5.65
same,PRISMA enrichment of interactor (log2),"FAM136A, Q96C01",6.82
same,PRISMA enrichment of interactor (log2),"GTF3C4, Q9UKN8",4.09
same,PRISMA enrichment of interactor (log2),"HMGN2, P05204",4.82
same,PRISMA enrichment of interactor (log2),"HMMR, O75330",4.95
same,PRISMA enrichment of interactor (log2),"HOMER2, Q9NSB8",4.03
same,PRISMA enrichment of interactor (log2),"LAMTOR5, O43504",4.37
same,PRISMA enrichment of interactor (log2),"MAP1B, P46821",6.26
same,PRISMA enrichment of interactor (log2),"MYO1C, O00159",4.24
same,PRISMA enrichment of interactor (log2),"NCOA5, Q9HCD5",4.12
same,PRISMA enrichment of interactor (log2),"NDUFS7, O75251",4.47
same,PRISMA enrichment of interactor (log2),"NUP160, Q12769",4.57
same,PRISMA enrichment of interactor (log2),"NUP88, Q99567",4.98
same,PRISMA enrichment of interactor (log2),"OXSR1, O95747",3.98
same,PRISMA enrichment of interactor (log2),"PDLIM1, O00151",4.11
same,PRISMA enrichment of interactor (log2),"PPIL4, Q8WUA2",6.17
same,PRISMA enrichment of interactor (log2),"PRRC2B, Q5JSZ5",4.94
same,PRISMA enrichment of interactor (log2),"RBMXL1, Q96E39",4.25
same,PRISMA enrichment of interactor (log2),"SEC31A, O94979",7.24
same,PRISMA enrichment of interactor (log2),"TUBGCP2, Q9BSJ2",4.65
same,PRISMA enrichment of interactor (log2),"TWNK, Q96RR1",5.23
same,PRISMA enrichment of interactor (log2),"ZC3HC1, Q86WB0",3.69
same,PRISMA enrichment of interactor (log2),hCG_2014768,5.65
SPTEKKKKKMSLEEA [ZEB2],PRISMA enrichment of interactor (log2),"ADAR, P55265",4.88
same,PRISMA enrichment of interactor (log2),"ANP32A, P39687",8.76
same,PRISMA enrichment of interactor (log2),"ANP32B, Q92688",6.37
same,PRISMA enrichment of interactor (log2),"HDGFL2, Q7Z4V5",4.5
same,PRISMA enrichment of interactor (log2),"HIST1H1E, P10412",5.9
same,PRISMA enrichment of interactor (log2),MACF1,5.62
same,PRISMA enrichment of interactor (log2),"MRPS5, P82675",6.13
same,PRISMA enrichment of interactor (log2),"NCL, P19338",7.01
same,PRISMA enrichment of interactor (log2),"NOLC1, Q14978",6.3
same,PRISMA enrichment of interactor (log2),"NTMT1, Q9BV86",5.25
same,PRISMA enrichment of interactor (log2),"NUCKS1, Q9H1E3",4.6
same,PRISMA enrichment of interactor (log2),"OGFR, Q9NZT2",8.68
same,PRISMA enrichment of interactor (log2),"PCYT1A, P49585",6.44
same,PRISMA enrichment of interactor (log2),"PDS5B, Q9NTI5",4.62
same,PRISMA enrichment of interactor (log2),"PSMD1, Q99460",6.74
same,PRISMA enrichment of interactor (log2),"PSPC1, Q8WXF1",4.71
same,PRISMA enrichment of interactor (log2),"PTMA, P06454",7.89
same,PRISMA enrichment of interactor (log2),"RFC5, P40937",5.64
same,PRISMA enrichment of interactor (log2),"RTF1, Q92541",4.43
same,PRISMA enrichment of interactor (log2),"SET, Q01105",6.7
same,PRISMA enrichment of interactor (log2),"SRSF2, Q01130",5.23
same,PRISMA enrichment of interactor (log2),"TXNDC5, Q8NBS9",4.76
same,PRISMA enrichment of interactor (log2),"UTP14A, Q9BVJ6",5
same,PRISMA enrichment of interactor (log2),"WDR82, Q6UXN9",4.63
same,PRISMA enrichment of interactor (log2),"ZC3H18, Q86VM9",4.59

# Rewritten tab-delimited: part of the list above
binder	measurement	setting	value
ISTGLGKQMQSAFQN [RP11-432J24.5_2]	PRISMA enrichment of interactor (log2)	TUBGCP2, Q9BSJ2	4.65
SPTEKKKKKMSLEEA [ZEB2]	PRISMA enrichment of interactor (log2)	PSPC1, Q8WXF1	4.71

# Reformatted: results already given.
binder | measurement | setting | value
ISTGLGKQMQSAFQN [RP11-432J24.5_2] | PRISMA enrichment of interactor (log2) | OXSR1, O95747 | 3.98
SPTEKKKKKMSLEEA [ZEB2] | PRISMA enrichment of interactor (log2) | WDR82, Q6UXN9 | 4.63
